PubChem BioAssay AID1508597 – Cure First | 2020
Screen: 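Survival screen with siRNA in ovarian cancer cells derived from patients, with or without rucaparib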 (primary screen). Cell system: human ovarian carcinoma lines grown from tumours: OCI-P5x (papillary serous) and OCI-C5x (clear cell). Knock-down reagent: siRNA pool against human genes, 1.25 pmol siRNA per well. Timing: 72 h or 96 h, depending on the cell culture. Challenge: rucaparib 20 µM (about IC30) or vehicle, present until read-out. Measurement: 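ATP luminescence measured at 72 or 96 h according to the culture, then normalised and expressed as percent viability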. Reading the numbers: viability, normalised: higher = more viable cells remaining. Active means: 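Active when normalised viability falls below 80 percent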. Calls: active = viability under 80%; inactive = viability 80% or more.
Here is one part, drawn at random, of about 2,100 reagents. 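Calls flag viability under 80% in either arm, not effects specific to rucaparib; the reference for percent is not stated.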 A number with no mark means an inactive call. Not stated in the record: the 100% reference.

gene | rucaparib or vehicle | cell line | technical replicate | viability, normalised (%)
SLC22A11 | Rucaparib | OCI-C5x (clear cell) | 1 | 31.5 (active)
SLC22A11 | Rucaparib | OCI-C5x (clear cell) | 2 | 23.9 (active)
SLC22A11 | Rucaparib | OCI-C5x (clear cell) | 3 | 33.9 (active)
SLC22A11 | Rucaparib | OCI-P5x (serous) | 1 | 33.5 (active)
SLC22A11 | Rucaparib | OCI-P5x (serous) | 2 | 34 (active)
SLC22A11 | Rucaparib | OCI-P5x (serous) | 3 | 35.9 (active)
SLC22A11 | Vehicle | OCI-C5x (clear cell) | 1 | 33.1 (active)
SLC22A11 | Vehicle | OCI-C5x (clear cell) | 2 | 35.4 (active)
SLC22A11 | Vehicle | OCI-C5x (clear cell) | 3 | 24.6 (active)
SLC22A11 | Vehicle | OCI-P5x (serous) | 1 | 42.1 (active)
SLC22A11 | Vehicle | OCI-P5x (serous) | 2 | 48 (active)
SLC22A11 | Vehicle | OCI-P5x (serous) | 3 | 43.5 (active)
SMARCD1 | Rucaparib | OCI-C5x (clear cell) | 1 | 56.6 (active)
SMARCD1 | Rucaparib | OCI-C5x (clear cell) | 2 | 48.5 (active)
SMARCD1 | Rucaparib | OCI-C5x (clear cell) | 3 | 53.7 (active)
SMARCD1 | Rucaparib | OCI-P5x (serous) | 1 | 66.6 (active)
SMARCD1 | Rucaparib | OCI-P5x (serous) | 2 | 63.1 (active)
SMARCD1 | Rucaparib | OCI-P5x (serous) | 3 | 59.8 (active)
SMARCD1 | Vehicle | OCI-C5x (clear cell) | 1 | 49 (active)
SMARCD1 | Vehicle | OCI-C5x (clear cell) | 2 | 50.8 (active)
SMARCD1 | Vehicle | OCI-C5x (clear cell) | 3 | 61.7 (active)
SMARCD1 | Vehicle | OCI-P5x (serous) | 1 | 57.7 (active)
SMARCD1 | Vehicle | OCI-P5x (serous) | 2 | 71.4 (active)
SMARCD1 | Vehicle | OCI-P5x (serous) | 3 | 60.1 (active)
PSENEN | Rucaparib | OCI-C5x (clear cell) | 1 | 44 (active)
PSENEN | Rucaparib | OCI-C5x (clear cell) | 2 | 61.2 (active)
PSENEN | Rucaparib | OCI-C5x (clear cell) | 3 | 46.7 (active)
PSENEN | Rucaparib | OCI-P5x (serous) | 1 | 79.3 (active)
PSENEN | Rucaparib | OCI-P5x (serous) | 2 | 80.6
PSENEN | Rucaparib | OCI-P5x (serous) | 3 | 82.1
PSENEN | Vehicle | OCI-C5x (clear cell) | 1 | 50.7 (active)
PSENEN | Vehicle | OCI-C5x (clear cell) | 2 | 53.1 (active)
PSENEN | Vehicle | OCI-C5x (clear cell) | 3 | 50.1 (active)
PSENEN | Vehicle | OCI-P5x (serous) | 1 | 73.4 (active)
PSENEN | Vehicle | OCI-P5x (serous) | 2 | 67 (active)
PSENEN | Vehicle | OCI-P5x (serous) | 3 | 81.6
HMGN3 | Rucaparib | OCI-C5x (clear cell) | 1 | 52.6 (active)
HMGN3 | Rucaparib | OCI-C5x (clear cell) | 2 | 44.3 (active)
HMGN3 | Rucaparib | OCI-C5x (clear cell) | 3 | 59.4 (active)
HMGN3 | Rucaparib | OCI-P5x (serous) | 1 | 64.7 (active)
HMGN3 | Rucaparib | OCI-P5x (serous) | 2 | 60.7 (active)
HMGN3 | Rucaparib | OCI-P5x (serous) | 3 | 58.9 (active)
HMGN3 | Vehicle | OCI-C5x (clear cell) | 1 | 71.3 (active)
HMGN3 | Vehicle | OCI-C5x (clear cell) | 2 | 59.8 (active)
HMGN3 | Vehicle | OCI-C5x (clear cell) | 3 | 72.9 (active)
HMGN3 | Vehicle | OCI-P5x (serous) | 1 | 95.9
HMGN3 | Vehicle | OCI-P5x (serous) | 2 | 88.7
HMGN3 | Vehicle | OCI-P5x (serous) | 3 | 93.5
HIPK3 | Rucaparib | OCI-C5x (clear cell) | 1 | 53.7 (active)
HIPK3 | Rucaparib | OCI-C5x (clear cell) | 2 | 56.2 (active)
HIPK3 | Rucaparib | OCI-C5x (clear cell) | 3 | 60.8 (active)
HIPK3 | Rucaparib | OCI-P5x (serous) | 1 | 94.5
HIPK3 | Rucaparib | OCI-P5x (serous) | 2 | 85.7
HIPK3 | Rucaparib | OCI-P5x (serous) | 3 | 86.8
HIPK3 | Vehicle | OCI-C5x (clear cell) | 1 | 55 (active)
HIPK3 | Vehicle | OCI-C5x (clear cell) | 2 | 44.7 (active)
HIPK3 | Vehicle | OCI-C5x (clear cell) | 3 | 66.8 (active)
HIPK3 | Vehicle | OCI-P5x (serous) | 1 | 85.2
HIPK3 | Vehicle | OCI-P5x (serous) | 2 | 41.4 (active)
HIPK3 | Vehicle | OCI-P5x (serous) | 3 | 79.3 (active)
